No constants are given. Whether binding was seen depends on the method and setting. In cells and extracts the contact can be indirect. These calls come from enrichment with a bait or labelling near it, and not all partners need be listed. For some of these results: A no says only that the protein was not detected with the bait.
B1: AF10 (MLLT10), endogenous (protein, UniProt P55197 1-1068)
chain: MVSSDRPVSLEDEVSHSMKEMIGGCCVCSDERGWAENPLVYCDGHGCSVAVHQACYGIVQVPTGPWFCRKCESQERAARVRCELCPHKDGALKRTDNGGWAHVVCALYIPEVQFANVSTMEPIVLQSVPHDRYNKTCYICDEQGRESKAATGACMTCNKHGCRQAFHVTCAQFAGLLCEEEGNGADNVQYCGYCKYHFSKLKKSKRGSNRSYDQSLSDSSSHSQDKHHEKEKKKYKEKDKHKQKHKKQPEPSPALVPSLTVTTEKTYTSTSNNSISGSLKRLEDTTARFTNANFQEVSAHTSSGKDVSETRGSEGKGKKSSAHSSGQRGRKPGGGRNPGTTVSAASPFPQGSFSGTPGSVKSSSGSSVQSPQDFLSFTDSDLRNDSYSHSQQSSATKDVHKGESGSQEGGVNSFSTLIGLPSTSAVTSQPKSFENSPGDLGNSSLPTAGYKRAQTSGIEEETVKEKKRKGNKQSKHGPGRPKGNKNQENVSHLSVSSASPTSSVASAAGSITSSSLQKSPTLLRNGSLQSLSVGSSPVGSEISMQYRHDGACPTTTFSELLNAIHNGIYNSNDVAVSFPNVVSGSGSSTPVSSSHLPQQSSGHLQQVGALSPSAVSSAAPAVATTQANTLSGSSLSQAPSHMYGNRSNSSMAALIAQSENNQTDQDLGDNSRNLVGRGSSPRGSLSPRSPVSSLQIRYDQPGNSSLENLPPVAASIEQLLERQWSEGQQFLLEQGTPSDILGMLKSLHQLQVENRRLEEQIKNLTAKKERLQLLNAQLSVPFPTITANPSPSHQIHTFSAQTAPTTDSLNSSKSPHIGNSFLPDNSLPVLNQDLTSSGQSTSSSSALSTPPPAGQSPAQQGSGVSGVQQVNGVTVGALASGMQPVTSTIPAVSAVGGIIGALPGNQLAINGIVGALNGVMQTPVTMSQNPTPLTHTTVPPNATHPMPATLTNSASGLGLLSDQQRQILIHQQQFQQLLNSQQLTPEQHQAFLYQLMQHHHQQHHQPELQQLQIPGPTQIPINNLLAGTQAPPLHTATTNPFLTIHGDNASQKVARLSDKTGPVAQEKS
B2: Wild-type AF10, expressed from cDNA (protein, UniProt P55197 1-1068)
chain: MVSSDRPVSLEDEVSHSMKEMIGGCCVCSDERGWAENPLVYCDGHGCSVAVHQACYGIVQVPTGPWFCRKCESQERAARVRCELCPHKDGALKRTDNGGWAHVVCALYIPEVQFANVSTMEPIVLQSVPHDRYNKTCYICDEQGRESKAATGACMTCNKHGCRQAFHVTCAQFAGLLCEEEGNGADNVQYCGYCKYHFSKLKKSKRGSNRSYDQSLSDSSSHSQDKHHEKEKKKYKEKDKHKQKHKKQPEPSPALVPSLTVTTEKTYTSTSNNSISGSLKRLEDTTARFTNANFQEVSAHTSSGKDVSETRGSEGKGKKSSAHSSGQRGRKPGGGRNPGTTVSAASPFPQGSFSGTPGSVKSSSGSSVQSPQDFLSFTDSDLRNDSYSHSQQSSATKDVHKGESGSQEGGVNSFSTLIGLPSTSAVTSQPKSFENSPGDLGNSSLPTAGYKRAQTSGIEEETVKEKKRKGNKQSKHGPGRPKGNKNQENVSHLSVSSASPTSSVASAAGSITSSSLQKSPTLLRNGSLQSLSVGSSPVGSEISMQYRHDGACPTTTFSELLNAIHNGIYNSNDVAVSFPNVVSGSGSSTPVSSSHLPQQSSGHLQQVGALSPSAVSSAAPAVATTQANTLSGSSLSQAPSHMYGNRSNSSMAALIAQSENNQTDQDLGDNSRNLVGRGSSPRGSLSPRSPVSSLQIRYDQPGNSSLENLPPVAASIEQLLERQWSEGQQFLLEQGTPSDILGMLKSLHQLQVENRRLEEQIKNLTAKKERLQLLNAQLSVPFPTITANPSPSHQIHTFSAQTAPTTDSLNSSKSPHIGNSFLPDNSLPVLNQDLTSSGQSTSSSSALSTPPPAGQSPAQQGSGVSGVQQVNGVTVGALASGMQPVTSTIPAVSAVGGIIGALPGNQLAINGIVGALNGVMQTPVTMSQNPTPLTHTTVPPNATHPMPATLTNSASGLGLLSDQQRQILIHQQQFQQLLNSQQLTPEQHQAFLYQLMQHHHQQHHQPELQQLQIPGPTQIPINNLLAGTQAPPLHTATTNPFLTIHGDNASQKVARLSDKTGPVAQEKS
B3: AF17 (protein, UniProt P55198 1-1093)
chain: MKEMVGGCCVCSDERGWAENPLVYCDGHACSVAVHQACYGIVQVPTGPWFCRKCESQERAARVRCELCPHKDGALKRTDNGGWAHVVCALYIPEVQFANVLTMEPIVLQYVPHDRFNKTCYICEEQGRESKAASGACMTCNRHGCRQAFHVTCAQMAGLLCEEEVLEVDNVKYCGYCKYHFSKMKTSRHSSGGGGGGAGGGGGSMGGGGSGFISGRRSRSASPSTQQEKHPTHHERGQKKSRKDKERLKQKHKKRPESPPSILTPPVVPTADKVSSSASSSSHHEASTQETSESSRESKGKKSSSHSLSHKGKKLSSGKGVSSFTSASSSSSSSSSSSGGPFQPAVSSLQSSPDFSAFPKLEQPEEDKYSKPTAPAPSAPPSPSAPEPPKADLFEQKVVFSGFGPIMRFSTTTSSSGRARAPSPGDYKSPHVTGSGASAGTHKRMPALSATPVPADETPETGLKEKKHKASKRSRHGPGRPKGSRNKEGTGGPAAPSLPSAQLAGFTATAASPFSGGSLVSSGLGGLSSRTFGPSGSLPSLSLESPLLGAGIYTSNKDPISHSGGMLRAVCSTPLSSSLLGPPGTSALPRLSRSPFTSTLPSSSASISTTQVFSLAGSTFSLPSTHIFGTPMGAVNPLLSQAESSHTEPDLEDCSFRCRGTSPQESLSSMSPISSLPALFDQTASAPCGGGQLDPAAPGTTNMEQLLEKQGDGEAGVNIVEMLKALHALQKENQRLQEQILSLTAKKERLQILNVQLSVPFPALPAALPAANGPVPGPYGLPPQAGSSDSLSTSKSPPGKSSLGLDNSLSTSSEDPHSGCPSRSSSSLSFHSTPPPLPLLQQSPATLPLALPGAPAPLPPQPQNGLGRAPGAAGLGAMPMAEGLLGGLAGSGGLPLNGLLGGLNGAAAPNPASLSQAGGAPTLQLPGCLNSLTEQQRHLLQQQEQQLQQLQQLLASPQLTPEHQTVVYQMIQQIQQKRELQRLQMAGGSQLPMASLLAGSSTPLLSAGTPGLLPTASAPPLLPAGALVAPSLGNNTSLMAAAAAAAAVAAAGGPPVLTAQTNPFLSLSGAEGSGGGPKGGTADKGASANQEKG
B4: NONO (protein, UniProt Q15233 1-471)
chain: MQSNKTFNLEKQNHTPRKHHQHHHQQQHHQQQQQQPPPPPIPANGQQASSQNEGLTIDLKNFRKPGEKTFTQRSRLFVGNLPPDITEEEMRKLFEKYGKAGEVFIHKDKGFGFIRLETRTLAEIAKVELDNMPLRGKQLRVRFACHSASLTVRNLPQYVSNELLEEAFSVFGQVERAVVIVDDRGRPSGKGIVEFSGKPAARKALDRCSEGSFLLTTFPRPVTVEPMDQLDDEEGLPEKLVIKNQQFHKEREQPPRFAQPGSFEYEYAMRWKALIEMEKQQQDQVDRNIKEAREKLEMEMEAARHEHQVMLMRQDLMRRQEELRRMEELHNQEVQKRKQLELRQEEERRRREEEMRRQQEEMMRRQQEGFKGTFPDAREQEIRMGQMAMGGAMGINNRGAMPPAPVPAGTPAPPGPATMMPDGTLGLTPPTTERFGQAATMEGIGAIGGTPPAFNRAAPGAEFAPNKRRRY
B5: SIN3B (protein, UniProt O75182 1-1162)
chain: MAHAGGGSGGSGAGGPAGRGLSGARWGRSGSAGHEKLPVHVEDALTYLDQVKIRFGSDPATYNGFLEIMKEFKSQSIDTPGVIRRVSQLFHEHPDLIVGFNAFLPLGYRIDIPKNGKLNIQSPLTSQENSHNHGDGAEDFKQQVPYKEDKPQVPLESDSVEFNNAISYVNKIKTRFLDHPEIYRSFLEILHTYQKEQLNTRGRPFRGMSEEEVFTEVANLFRGQEDLLSEFGQFLPEAKRSLFTGNGPCEMHSVQKNEHDKTPEHSRKRSRPSLLRPVSAPAKKKMKLRGTKDLSIAAVGKYGTLQEFSFFDKVRRVLKSQEVYENFLRCIALFNQELVSGSELLQLVSPFLGKFPELFAQFKSFLGVKELSFAPPMSDRSGDGISREIDYASCKRIGSSYRALPKTYQQPKCSGRTAICKELDHWTLLQGSWTDDYCMSKFKNTCWIPGYSAGVLNDTWVSFPSWSEDSTFVSSKKTPYEEQLHRCEDERFELDVVLETNLATIRVLESVQKKLSRMAPEDQEKFRLDDSLGGTSEVIQRRAIYRIYGDKAPEIIESLKKNPVTAVPVVLKRLKAKEEEWREAQQGFNKIWREQYEKAYLKSLDHQAVNFKQNDTKALRSKSLLNEIESVYDEHQEQHSEGRSAPSSEPHLIFVYEDRQILEDAAALISYYVKRQPAIQKEDQGTIHQLLHQFVPSLFFSQQLDLGASEESADEDRDSPQGQTTDPSERKKPAPGPHSSPPEEKGAFGDAPATEQPPLPPPAPHKPLDDVYSLFFANNNWYFFLRLHQTLCSRLLKIYRQAQKQLLEYRTEKEREKLLCEGRREKGSDPAMELRLKQPSEVELEEYYPAFLDMVRSLLEGSIDPTQYEDTLREMFTIHAYVGFTMDKLVQNIARQLHHLVSDDVCLKVVELYLNEKKRGAAGGNLSSRCVRAARETSYQWKAERCMADENCFKVMFLQRKGQVIMTIELLDTEEAQTEDPVEVQHLARYVEQYVGTEGASSSPTEGFLLKPVFLQRNLKKFRRRWQSEQARALRGEARSSWKRLVGVESACDVDCRFKLSTHKMVFIVNSEDYMYRRGTLCRAKQVQPLVLLRHHQHFEEWHSRWLEDNVTVEAASLVQDWLMGEEDEDMVPCKTLCETVHVHGLPVTRYRVQYSRRPASP

Protein sequences, listed by entry. Tags and fused reporters are not part of them. Lines headed by an entry give the natural chain unless they say otherwise; changes in a name come on top.
UniProt Q8TEK3: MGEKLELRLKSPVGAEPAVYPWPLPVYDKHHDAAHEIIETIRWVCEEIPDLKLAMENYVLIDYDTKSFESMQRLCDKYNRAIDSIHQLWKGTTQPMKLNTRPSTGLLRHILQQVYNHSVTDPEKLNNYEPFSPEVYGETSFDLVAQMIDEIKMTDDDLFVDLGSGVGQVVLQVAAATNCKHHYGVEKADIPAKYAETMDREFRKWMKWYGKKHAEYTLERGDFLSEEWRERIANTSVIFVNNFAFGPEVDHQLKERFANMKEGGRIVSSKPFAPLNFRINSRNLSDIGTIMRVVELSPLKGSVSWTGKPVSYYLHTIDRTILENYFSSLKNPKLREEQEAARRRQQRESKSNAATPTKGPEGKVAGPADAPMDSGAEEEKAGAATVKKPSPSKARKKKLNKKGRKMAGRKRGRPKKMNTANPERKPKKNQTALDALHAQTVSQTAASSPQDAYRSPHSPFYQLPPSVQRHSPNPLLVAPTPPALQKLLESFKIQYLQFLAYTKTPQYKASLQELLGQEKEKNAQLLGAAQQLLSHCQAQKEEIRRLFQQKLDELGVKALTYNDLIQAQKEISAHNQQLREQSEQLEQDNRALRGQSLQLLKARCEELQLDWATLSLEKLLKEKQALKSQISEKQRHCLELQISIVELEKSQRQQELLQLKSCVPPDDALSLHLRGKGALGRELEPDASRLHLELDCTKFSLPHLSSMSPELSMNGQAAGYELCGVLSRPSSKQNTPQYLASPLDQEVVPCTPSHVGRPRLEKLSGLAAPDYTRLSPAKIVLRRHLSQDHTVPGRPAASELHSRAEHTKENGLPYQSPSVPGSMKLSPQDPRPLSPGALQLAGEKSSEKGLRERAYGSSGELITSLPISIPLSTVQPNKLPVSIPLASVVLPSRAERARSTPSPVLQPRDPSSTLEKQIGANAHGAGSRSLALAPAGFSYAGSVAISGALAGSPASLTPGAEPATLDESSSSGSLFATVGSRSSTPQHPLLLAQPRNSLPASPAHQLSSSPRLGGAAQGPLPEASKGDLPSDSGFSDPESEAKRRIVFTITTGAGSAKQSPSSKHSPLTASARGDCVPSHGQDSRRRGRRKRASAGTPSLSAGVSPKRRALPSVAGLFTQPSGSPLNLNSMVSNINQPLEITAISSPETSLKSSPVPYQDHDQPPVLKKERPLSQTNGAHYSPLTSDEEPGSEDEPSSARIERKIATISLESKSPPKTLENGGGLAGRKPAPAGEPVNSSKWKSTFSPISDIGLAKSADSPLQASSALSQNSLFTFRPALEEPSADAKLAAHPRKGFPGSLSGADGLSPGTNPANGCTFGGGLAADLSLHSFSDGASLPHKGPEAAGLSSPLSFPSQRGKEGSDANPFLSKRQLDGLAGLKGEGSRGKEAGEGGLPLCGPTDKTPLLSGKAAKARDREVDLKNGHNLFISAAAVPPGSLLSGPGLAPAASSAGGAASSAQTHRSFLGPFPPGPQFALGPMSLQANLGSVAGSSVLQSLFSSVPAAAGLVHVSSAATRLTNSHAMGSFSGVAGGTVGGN
UniProt P12270: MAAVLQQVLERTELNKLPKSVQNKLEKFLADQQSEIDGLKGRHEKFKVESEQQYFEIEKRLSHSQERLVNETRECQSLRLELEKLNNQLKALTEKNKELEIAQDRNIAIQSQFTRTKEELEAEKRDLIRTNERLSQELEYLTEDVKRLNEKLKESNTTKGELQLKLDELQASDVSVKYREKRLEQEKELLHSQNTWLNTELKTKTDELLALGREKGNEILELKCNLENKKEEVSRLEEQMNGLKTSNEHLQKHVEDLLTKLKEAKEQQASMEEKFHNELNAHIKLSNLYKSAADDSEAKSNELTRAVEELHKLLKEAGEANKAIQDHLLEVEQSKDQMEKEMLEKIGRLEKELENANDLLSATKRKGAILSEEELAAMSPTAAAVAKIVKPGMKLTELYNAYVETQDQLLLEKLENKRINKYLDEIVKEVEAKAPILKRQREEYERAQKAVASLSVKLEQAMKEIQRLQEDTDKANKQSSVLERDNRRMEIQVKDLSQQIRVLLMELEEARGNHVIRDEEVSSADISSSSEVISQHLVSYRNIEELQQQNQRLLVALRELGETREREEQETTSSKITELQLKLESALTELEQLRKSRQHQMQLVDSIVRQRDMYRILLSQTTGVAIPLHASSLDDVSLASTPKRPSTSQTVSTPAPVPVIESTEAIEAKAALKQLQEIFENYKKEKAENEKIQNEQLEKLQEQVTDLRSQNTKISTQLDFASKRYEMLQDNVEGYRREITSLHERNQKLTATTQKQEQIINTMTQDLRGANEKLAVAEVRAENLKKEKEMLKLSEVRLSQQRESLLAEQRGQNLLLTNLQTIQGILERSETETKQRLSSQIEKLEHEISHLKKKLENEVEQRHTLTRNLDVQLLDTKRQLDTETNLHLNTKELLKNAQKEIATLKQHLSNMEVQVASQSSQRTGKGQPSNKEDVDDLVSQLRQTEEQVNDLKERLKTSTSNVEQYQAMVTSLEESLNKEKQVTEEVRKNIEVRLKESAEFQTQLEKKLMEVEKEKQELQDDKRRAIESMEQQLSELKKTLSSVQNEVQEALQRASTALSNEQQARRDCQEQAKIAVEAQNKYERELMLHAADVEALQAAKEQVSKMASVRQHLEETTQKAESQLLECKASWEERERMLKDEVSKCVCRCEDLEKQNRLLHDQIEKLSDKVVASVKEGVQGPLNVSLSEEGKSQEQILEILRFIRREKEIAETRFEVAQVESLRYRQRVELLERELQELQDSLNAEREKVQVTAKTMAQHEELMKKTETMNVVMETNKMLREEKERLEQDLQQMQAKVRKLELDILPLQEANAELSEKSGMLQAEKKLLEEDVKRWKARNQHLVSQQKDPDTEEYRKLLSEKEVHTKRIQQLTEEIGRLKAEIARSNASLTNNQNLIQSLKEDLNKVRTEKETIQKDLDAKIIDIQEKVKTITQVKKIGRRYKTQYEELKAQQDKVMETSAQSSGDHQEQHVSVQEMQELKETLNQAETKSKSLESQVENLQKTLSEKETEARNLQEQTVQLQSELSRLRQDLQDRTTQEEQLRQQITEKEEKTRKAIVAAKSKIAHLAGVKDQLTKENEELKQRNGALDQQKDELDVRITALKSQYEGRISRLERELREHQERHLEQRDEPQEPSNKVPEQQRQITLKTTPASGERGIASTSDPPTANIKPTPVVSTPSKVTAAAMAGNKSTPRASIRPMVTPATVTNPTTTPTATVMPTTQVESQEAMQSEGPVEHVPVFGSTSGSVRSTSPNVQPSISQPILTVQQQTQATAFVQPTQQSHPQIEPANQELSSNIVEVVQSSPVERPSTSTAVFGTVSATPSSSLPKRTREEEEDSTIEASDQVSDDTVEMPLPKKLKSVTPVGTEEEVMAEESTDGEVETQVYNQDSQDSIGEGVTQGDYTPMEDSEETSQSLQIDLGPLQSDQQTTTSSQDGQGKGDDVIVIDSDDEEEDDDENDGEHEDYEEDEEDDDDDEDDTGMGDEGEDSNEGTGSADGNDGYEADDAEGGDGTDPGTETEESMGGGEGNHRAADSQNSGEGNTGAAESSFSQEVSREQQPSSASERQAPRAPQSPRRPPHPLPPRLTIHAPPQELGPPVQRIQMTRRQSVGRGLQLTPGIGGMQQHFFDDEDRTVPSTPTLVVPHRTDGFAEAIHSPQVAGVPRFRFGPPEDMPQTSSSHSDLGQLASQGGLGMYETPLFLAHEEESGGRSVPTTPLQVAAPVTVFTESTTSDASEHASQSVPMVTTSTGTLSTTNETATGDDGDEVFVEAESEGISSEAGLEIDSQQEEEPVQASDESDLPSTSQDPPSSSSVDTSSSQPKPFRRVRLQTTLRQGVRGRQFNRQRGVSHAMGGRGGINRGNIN
UniProt Q14980: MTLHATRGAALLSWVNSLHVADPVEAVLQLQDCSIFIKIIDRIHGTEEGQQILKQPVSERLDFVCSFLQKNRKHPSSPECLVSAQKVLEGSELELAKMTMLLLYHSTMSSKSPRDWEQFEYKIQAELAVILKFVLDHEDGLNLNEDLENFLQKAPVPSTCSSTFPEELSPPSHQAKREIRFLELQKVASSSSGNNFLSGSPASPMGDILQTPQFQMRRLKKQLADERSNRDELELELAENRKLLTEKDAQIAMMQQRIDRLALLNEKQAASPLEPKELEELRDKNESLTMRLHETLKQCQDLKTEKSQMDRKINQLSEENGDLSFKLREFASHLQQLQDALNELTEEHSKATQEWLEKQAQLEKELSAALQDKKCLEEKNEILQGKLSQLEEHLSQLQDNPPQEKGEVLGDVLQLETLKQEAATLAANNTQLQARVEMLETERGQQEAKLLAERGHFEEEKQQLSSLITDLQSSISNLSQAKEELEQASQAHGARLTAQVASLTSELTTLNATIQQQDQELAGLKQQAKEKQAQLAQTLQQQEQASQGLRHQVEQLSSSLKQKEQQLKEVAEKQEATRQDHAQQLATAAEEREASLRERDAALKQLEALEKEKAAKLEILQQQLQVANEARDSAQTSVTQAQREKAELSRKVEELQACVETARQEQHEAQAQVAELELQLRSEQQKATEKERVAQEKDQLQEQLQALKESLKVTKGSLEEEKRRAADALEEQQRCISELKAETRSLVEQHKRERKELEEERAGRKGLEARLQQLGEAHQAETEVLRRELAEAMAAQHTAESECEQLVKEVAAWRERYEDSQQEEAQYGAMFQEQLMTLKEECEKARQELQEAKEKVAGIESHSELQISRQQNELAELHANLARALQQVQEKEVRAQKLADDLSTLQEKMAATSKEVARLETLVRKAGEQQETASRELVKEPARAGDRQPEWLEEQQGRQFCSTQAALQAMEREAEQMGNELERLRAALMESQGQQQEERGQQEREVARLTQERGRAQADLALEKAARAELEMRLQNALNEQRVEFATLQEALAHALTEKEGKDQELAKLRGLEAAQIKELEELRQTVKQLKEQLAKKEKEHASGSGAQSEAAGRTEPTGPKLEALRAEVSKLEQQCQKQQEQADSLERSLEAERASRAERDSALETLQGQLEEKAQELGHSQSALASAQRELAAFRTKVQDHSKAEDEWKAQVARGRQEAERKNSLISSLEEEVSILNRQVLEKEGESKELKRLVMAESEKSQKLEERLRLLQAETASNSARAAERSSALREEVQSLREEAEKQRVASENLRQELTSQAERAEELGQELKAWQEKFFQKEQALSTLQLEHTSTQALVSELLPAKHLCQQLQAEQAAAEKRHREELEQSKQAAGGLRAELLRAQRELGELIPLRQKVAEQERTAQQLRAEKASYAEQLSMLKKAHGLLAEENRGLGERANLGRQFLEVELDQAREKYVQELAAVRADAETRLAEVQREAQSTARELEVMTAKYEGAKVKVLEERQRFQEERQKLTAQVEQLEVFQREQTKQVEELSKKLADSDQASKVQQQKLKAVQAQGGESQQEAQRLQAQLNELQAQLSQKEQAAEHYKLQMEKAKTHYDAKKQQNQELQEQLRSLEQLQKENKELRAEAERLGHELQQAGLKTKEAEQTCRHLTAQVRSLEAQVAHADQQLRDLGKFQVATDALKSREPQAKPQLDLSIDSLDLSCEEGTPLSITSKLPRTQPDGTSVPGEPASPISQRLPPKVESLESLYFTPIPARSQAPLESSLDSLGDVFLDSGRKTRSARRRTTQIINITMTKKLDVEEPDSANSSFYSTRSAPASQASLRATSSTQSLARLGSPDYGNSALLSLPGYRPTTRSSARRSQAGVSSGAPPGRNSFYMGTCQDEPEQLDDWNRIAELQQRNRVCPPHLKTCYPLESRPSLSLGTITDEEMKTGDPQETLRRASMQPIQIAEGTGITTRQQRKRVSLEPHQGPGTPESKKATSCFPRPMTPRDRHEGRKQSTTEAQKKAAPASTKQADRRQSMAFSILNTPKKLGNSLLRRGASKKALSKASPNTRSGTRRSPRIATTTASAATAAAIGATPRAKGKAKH

Columns and labels:
[1] = molecular target: BirA*-DOT1L fusion protein, wild type (UniProt Q8TEK3); experiment: proximity labelling; BioID: HEK-293T cells with lentiviral BirA*-DOT1L (WT or MUT), 50 μM D-biotin 24 h, nuclear fraction, streptavidin bead pull-down, on-bead trypsin digestion, LC-MS/MS; proteins of uninfected control cells subtracted; two technical replicates
[2] = molecular target: BirA*-DOT1L fusion protein, catalytically dead mutant (G163R/S164C/G165R) (UniProt Q8TEK3); experiment: as above
[3] = molecular target: BirA*-DOT1L fusion protein, wild type (UniProt Q8TEK3); experiment: as above; remark: listed apart in the source
[4] = molecular target: BirA*-DOT1L fusion protein, wild type (UniProt Q8TEK3); experiment: proximity labelling; BioID with blot: cells expressing BioID-DOT1L and GFP, WT-AF10 or OM-LZΔ AF10, 50 μM D-biotin 24 h, streptavidin pull-down, immunoblot for AF10

Molecule	binding [1]	binding [3]	further results
TPR (from UniProt P12270 1-2363)	binds	–	–
DDX21 (from UniProt Q9NR30 1-783)	binds	–	–
NUMA1 (from UniProt Q14980 1-2115)	binds	–	–
B1	–	binds	binding [2]: no binding
B2	–	–	binding [4]: binds
B3	–	binds	–
B4	–	binds	–
B5	–	binds	binding [2]: no binding

Source: publication PMC8254283
